# According to article PMC9316600:
# Chains of the proteins cited; added tags and fusions are not shown. Lines headed by an entry give the natural chain unless they say otherwise; changes in a name come on top.
# UniProt C8KIP4: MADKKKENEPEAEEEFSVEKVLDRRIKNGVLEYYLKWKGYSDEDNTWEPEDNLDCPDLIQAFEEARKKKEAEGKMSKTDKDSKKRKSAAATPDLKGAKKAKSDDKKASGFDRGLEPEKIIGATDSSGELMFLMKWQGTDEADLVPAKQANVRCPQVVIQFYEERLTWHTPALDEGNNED
# UniProt Q1HPP1: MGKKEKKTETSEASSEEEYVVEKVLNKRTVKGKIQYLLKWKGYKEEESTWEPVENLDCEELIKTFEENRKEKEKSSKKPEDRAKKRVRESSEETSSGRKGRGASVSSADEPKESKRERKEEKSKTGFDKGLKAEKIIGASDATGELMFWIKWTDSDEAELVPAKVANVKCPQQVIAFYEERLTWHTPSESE
# These are yes or no findings as the source states them, for the method shown. Binding seen in cells or lysates may run through a third protein. Binding can be weak; no strength is given.
# Biological target: HA-BmHP1b (Bombyx mori) (UniProt C8KIP4)
# Test: co-IP; Flag- and HA-tagged proteins co-expressed in BmN4 cells, lysed 5 days after transfection (10 mM Tris-HCl pH 7.5, 150 mM NaCl, 5 mM EDTA, 1% Nonidet P-40); anti-Flag (or -HA) monoclonal antibody-coupled G protein beads, 4 °C overnight; western blot with anti-Flag and anti-HA
substance,measurement,value
Flag-BmHP1a (from UniProt Q1HPP1),binding,binds
